In PMC7544099:
These are yes or no findings as the source states them, for the method shown. In cells and extracts the contact can be indirect. A yes stands for co-enrichment or nearness to the bait. Other partners may have been found.

The chains behind the UniProt entries cited, without tags or fusion partners.
UniProt Q9Y3Z3: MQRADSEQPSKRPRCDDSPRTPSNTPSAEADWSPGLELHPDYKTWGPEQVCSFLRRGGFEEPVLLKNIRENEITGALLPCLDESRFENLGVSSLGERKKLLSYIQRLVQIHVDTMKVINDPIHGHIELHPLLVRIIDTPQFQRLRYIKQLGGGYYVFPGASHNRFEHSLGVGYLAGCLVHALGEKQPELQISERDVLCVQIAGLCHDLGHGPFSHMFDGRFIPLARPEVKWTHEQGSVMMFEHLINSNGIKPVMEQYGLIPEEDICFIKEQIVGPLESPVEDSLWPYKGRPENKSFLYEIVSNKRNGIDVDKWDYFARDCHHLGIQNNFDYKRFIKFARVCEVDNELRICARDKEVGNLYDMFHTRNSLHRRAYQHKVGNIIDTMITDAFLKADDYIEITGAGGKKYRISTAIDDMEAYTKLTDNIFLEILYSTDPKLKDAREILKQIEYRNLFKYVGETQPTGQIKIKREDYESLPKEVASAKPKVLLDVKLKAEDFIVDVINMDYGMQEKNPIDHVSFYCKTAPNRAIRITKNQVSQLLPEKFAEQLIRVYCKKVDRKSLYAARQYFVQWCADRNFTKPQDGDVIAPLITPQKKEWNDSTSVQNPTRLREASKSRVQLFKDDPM
UniProt P16790: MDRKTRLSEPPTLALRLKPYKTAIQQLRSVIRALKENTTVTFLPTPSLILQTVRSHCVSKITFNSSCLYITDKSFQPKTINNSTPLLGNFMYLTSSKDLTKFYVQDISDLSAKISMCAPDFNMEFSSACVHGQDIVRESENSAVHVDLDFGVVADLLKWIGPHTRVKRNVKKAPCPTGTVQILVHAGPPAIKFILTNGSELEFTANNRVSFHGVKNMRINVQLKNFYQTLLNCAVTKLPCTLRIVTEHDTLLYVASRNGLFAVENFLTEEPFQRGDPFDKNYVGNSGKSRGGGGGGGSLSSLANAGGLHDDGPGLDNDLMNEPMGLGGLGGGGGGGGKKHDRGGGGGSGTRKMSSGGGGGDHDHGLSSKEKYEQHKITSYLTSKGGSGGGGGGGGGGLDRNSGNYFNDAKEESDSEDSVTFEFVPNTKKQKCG
UniProt P09695: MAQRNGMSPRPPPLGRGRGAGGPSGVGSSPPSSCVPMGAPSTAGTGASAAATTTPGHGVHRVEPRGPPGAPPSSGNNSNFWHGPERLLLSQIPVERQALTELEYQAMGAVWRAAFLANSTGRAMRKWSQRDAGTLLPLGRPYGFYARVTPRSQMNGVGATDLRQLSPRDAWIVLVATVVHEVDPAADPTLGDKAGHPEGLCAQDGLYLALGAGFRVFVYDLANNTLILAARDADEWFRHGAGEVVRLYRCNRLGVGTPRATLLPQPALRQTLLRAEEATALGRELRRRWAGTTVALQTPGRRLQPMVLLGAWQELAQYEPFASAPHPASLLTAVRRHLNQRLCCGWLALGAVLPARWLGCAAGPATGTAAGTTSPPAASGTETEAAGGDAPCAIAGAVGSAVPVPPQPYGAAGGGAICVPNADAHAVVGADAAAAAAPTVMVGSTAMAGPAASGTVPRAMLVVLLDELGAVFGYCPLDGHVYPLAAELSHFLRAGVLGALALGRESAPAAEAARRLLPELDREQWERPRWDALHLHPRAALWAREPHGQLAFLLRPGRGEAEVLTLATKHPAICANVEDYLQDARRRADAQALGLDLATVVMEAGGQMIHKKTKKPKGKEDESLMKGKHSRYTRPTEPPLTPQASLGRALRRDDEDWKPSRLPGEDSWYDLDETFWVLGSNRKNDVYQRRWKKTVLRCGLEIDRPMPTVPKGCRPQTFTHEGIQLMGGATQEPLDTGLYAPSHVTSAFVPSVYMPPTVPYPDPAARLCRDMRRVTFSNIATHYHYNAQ
UniProt P09715: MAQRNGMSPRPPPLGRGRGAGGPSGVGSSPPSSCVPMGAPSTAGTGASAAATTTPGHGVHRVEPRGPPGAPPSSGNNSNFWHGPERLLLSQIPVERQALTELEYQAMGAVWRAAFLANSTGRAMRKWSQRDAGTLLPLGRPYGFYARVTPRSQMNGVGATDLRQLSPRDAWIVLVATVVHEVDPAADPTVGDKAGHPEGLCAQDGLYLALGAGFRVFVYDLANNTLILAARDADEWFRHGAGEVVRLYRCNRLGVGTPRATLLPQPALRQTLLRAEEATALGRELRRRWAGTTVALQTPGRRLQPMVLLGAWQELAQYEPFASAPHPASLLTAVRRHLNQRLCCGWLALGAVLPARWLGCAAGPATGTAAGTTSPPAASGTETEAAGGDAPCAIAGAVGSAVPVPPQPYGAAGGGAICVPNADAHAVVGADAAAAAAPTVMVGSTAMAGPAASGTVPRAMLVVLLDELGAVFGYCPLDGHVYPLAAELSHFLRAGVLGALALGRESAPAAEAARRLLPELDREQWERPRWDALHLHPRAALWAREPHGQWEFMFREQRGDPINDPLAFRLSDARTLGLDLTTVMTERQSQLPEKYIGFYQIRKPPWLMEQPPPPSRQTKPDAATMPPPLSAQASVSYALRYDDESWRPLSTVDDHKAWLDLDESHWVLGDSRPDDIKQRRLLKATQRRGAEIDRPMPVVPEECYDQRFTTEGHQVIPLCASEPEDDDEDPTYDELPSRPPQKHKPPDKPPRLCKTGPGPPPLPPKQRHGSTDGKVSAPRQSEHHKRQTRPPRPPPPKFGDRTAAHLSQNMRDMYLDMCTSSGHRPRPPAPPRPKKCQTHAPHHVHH

Target: Sterile α motif (SAM) and histidine-aspartic acid domain (HD)-containing protein 1 (SAMHD1) (human (endogenous in HFFs)) (UniProt Q9Y3Z3)
Test: affinity purification with mass spectrometry; lysates of HFFs not infected or infected with AD169 (MOI 1 and MOI 3, 3 dpi) immunoprecipitated by protein A Sepharose beads with anti-SAMHD1 or anti-pT592-SAMHD1 Ab, rabbit IgG as control; LC-MS/MS, label-free quantification; fold change between the two pull-downs

Row | Substance | binding
1 | VPAP (from UniProt P16790 1-433) | binds
2 | TRS1 (from UniProt P09695 1-788) | binds
3 | IRS1 (from UniProt P09715 1-846) | binds
